In publication PMC9850815:
These are yes or no findings as the source states them, for the method shown. Binding seen in cells or lysates may run through a third protein. Some entries that bind do so weakly or less than the wild type.

Amino acid sequences for entries named in this document (tags omitted).
UniProt P40763: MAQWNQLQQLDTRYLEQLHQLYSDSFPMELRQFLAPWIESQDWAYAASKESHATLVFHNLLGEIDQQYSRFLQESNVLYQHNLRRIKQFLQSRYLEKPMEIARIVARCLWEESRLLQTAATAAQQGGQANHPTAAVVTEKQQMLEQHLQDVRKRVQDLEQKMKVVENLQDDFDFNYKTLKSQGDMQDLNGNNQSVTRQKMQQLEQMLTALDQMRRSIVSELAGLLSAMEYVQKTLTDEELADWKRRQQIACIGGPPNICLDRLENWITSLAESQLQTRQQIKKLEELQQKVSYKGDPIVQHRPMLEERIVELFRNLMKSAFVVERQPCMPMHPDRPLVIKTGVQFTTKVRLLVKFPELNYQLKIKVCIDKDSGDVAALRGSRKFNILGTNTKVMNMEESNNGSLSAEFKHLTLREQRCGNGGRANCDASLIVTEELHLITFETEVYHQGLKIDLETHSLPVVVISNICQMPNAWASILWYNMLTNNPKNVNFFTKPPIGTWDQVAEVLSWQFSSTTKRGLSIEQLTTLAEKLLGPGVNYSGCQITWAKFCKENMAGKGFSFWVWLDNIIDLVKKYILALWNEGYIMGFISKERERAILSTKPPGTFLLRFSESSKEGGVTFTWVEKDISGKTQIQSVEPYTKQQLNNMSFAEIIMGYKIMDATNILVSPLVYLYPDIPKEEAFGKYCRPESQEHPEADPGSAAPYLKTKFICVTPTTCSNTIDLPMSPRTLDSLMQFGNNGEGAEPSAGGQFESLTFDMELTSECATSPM

Experiments:
TET2-His = TET2-His (UniProt Q6N021); assay: co-IP; lysate of HEK293T with ectopically expressed TET2 and STAT3 or their domains and deletion mutants, immunoprecipitated with anti-His, anti-Flag or anti-HA antibody at 4 °C overnight, protein A/G agarose, western blot
[1] = molecular target: Ten-eleven translocation protein 2 (TET2), endogenous in HUVECs (human (endogenous in HUVECs)) (UniProt Q6N021); assay: co-IP; lysates of HUVECs (500 µg) immunoprecipitated with anti-TET2 or anti-STAT3 antibodies at 4 °C overnight, protein A/G agarose, western blot; endogenous proteins

| binding (TET2-His) | binding [1] | Substance |
| --- | --- | --- |
| binds | – | STAT3-Flag (from UniProt P40763 1-770) |
| – | binds | Signal transducer and activator of transcription 3 (STAT3), endogenous in HUVECs (from UniProt P40763 1-770) |
